Data from patent US20050058649A1.
No constants are given. Whether binding was seen depends on the method and setting. Some binding calls cover weakened binding; strength is not graded here.

Key:
[1] = molecular target: T1, phospholipase A2 (PLA2) (Homo sapiens (Human)) (UniProt O15496); assay: dot blot / SPOTs peptide array of PLA2
T1 sequence: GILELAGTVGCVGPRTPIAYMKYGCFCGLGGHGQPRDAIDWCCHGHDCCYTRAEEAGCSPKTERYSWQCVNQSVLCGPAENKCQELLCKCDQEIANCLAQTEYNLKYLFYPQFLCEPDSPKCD

[2] = molecular target: T1, phospholipase A2 (PLA2) (Homo sapiens (Human)); assay: SPOTs array of overlapping 12-mer PLA2 peptides

B1: anti-PLA2 mAb 2.23 (antibody, IgG4, V domains shown)
VH: QVQLEESGGGVVQPGRSLRLSCAASGFTFSSYGMHWVRQGPGKGLEWVAVIWYDGSNKKYADSVKGRFTISRDNSKNTLYLQMNSLRAEDTAVYYCARDGPIFGVVMGYWGQGTLVTVSS
VL: DIQMTQSPSSLSASVGDRVTITCRTSQSISNYLNWFQQKPGKAPILLIYAASSLQSGVPSRFSGSGSGTDFTLTISSLQPEDFATYYCHQSYSIPITFGQGTRLEIKR
[1]
  binding: binds
[2]
  binding: binds
